PubChem BioAssay (NCATS)
Inconclusive results, whose numbers are uncertain, are shown with a selection of clear calls. For some of these results: Potencies of inconclusive entries are doubtful fits and often do not repeat. Calls of active or inactive are those of the source. The call rests on the fitted dose curve; in most records, active means well fitted curve in the direction sought with a large enough effect; inconclusive means small, poorly fitted or top-dose-only effect, or another doubt; inactive means no such curve, though single readings can be large; an effect the other way counts as inactive or inconclusive.

What was measured:
[1] = Quantitative High-Throughput drug screen in 47 multiple myeloma cell lines against the NCATS MIPE library collection: KMS20_JCRB cell viability assay (AID 1918973); conditions: CellTiter-Glo ATP, 48 h; viability (% of DMSO): at 45.8 µM (top of the series); further: nearly all actives have a fitted effect of over 45% in size; further: potency means the concentration at half of the fitted maximal effect
How it was run: (§1)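 Primary qHTS used for cherry-picking: cells at 500/well, library compounds for 48 h (37C, 5% CO2), luminescent ATP assay.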

[2] = Quantitative High-Throughput drug screen in 47 multiple myeloma cell lines against the NCATS MIPE library collection: KMS21BM_JCRB cell viability assay (AID 1918974); conditions: ATP luminescence, 48 h; viability: at 45.8 µM (top of the series) unless noted; further: potency means the concentration at half of the fitted maximal effect
How it was run: as §1

[3] = Quantitative High-Throughput drug screen in 47 multiple myeloma cell lines against the NCATS MIPE library collection: KMS26_JCRB cell viability assay (AID 1918975); conditions: KMS26 myeloma cells viability, CellTiter-Glo ATP, 48 h; viability (% of DMSO): at 45.8 µM (top of the series); further: potency means the concentration at half of the fitted maximal effect; nearly all actives have a fitted effect of over 45% in size
How it was run: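 CellTiter-Glo luminescence (ATP) after 48 h compound exposure, 37C/5% CO2; 500 cells/well; MIPE 4.0 approved/investigational drugs pinned in; DMSO = 100%, media only = 0% viability.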

[4] = Quantitative High-Throughput drug screen in 47 multiple myeloma cell lines against the NCATS MIPE library collection: MOLP8_DSMZ cell viability assay (AID 1918977); conditions: MOLP8 myeloma viability, CellTiter-Glo ATP luminescence, 48 h; viability (% of control): at 45.8 µM (top of the series); further: nearly all actives have a fitted effect of over 45% in size; further: potency means the concentration at half of the fitted maximal effect
How it was run: (§2)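 Cells were exposed to library compounds for 48 hours, after which ATP was measured by CellTiter-Glo. Signal was taken as median relative luminescence units.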

[5] = Quantitative High-Throughput drug screen in 47 multiple myeloma cell lines against the NCATS MIPE library collection: LP1_DSMZ cell viability assay (AID 1918982); conditions: LP1 myeloma viability, CellTiter-Glo ATP luminescence, 48 h; viability (% of control): at 45.8 µM (top of the series); further: nearly all actives have a fitted effect of over 35% in size; further: potency means the concentration at half of the fitted maximal effect
How it was run: as §2

[6] = Quantitative High-Throughput drug screen in 47 multiple myeloma cell lines against the NCATS MIPE library collection: KMS28PE_JCRB cell viability assay (AID 1918983); further: nearly all actives have a fitted effect of over 35% in size; further: potency means the concentration at half of the fitted maximal effect
How it was run: as §2

[7] = Quantitative High-Throughput drug screen in 47 multiple myeloma cell lines against the NCATS MIPE library collection: L363_DSMZ cell viability assay (AID 1918984); conditions: L363 myeloma viability, CellTiter-Glo ATP luminescence, 48 h; viability (% of control): at 45.8 µM (top of the series); further: nearly all actives have a fitted effect of over 40% in size; further: potency means the concentration at half of the fitted maximal effect
How it was run: as §2

[8] = Quantitative High-Throughput drug screen in 47 multiple myeloma cell lines against the NCATS MIPE library collection: OPM1_PLB cell viability assay (AID 1918989); further: nearly all actives have a fitted effect of over 40% in size; further: potency means the concentration at half of the fitted maximal effect
How it was run: as §2

[9] = Quantitative High-Throughput drug screen in 47 multiple myeloma cell lines against the NCATS MIPE library collection: MMM1_PLB cell viability assay (AID 1918976); further: potency means the concentration at half of the fitted maximal effect; nearly all actives have a fitted effect of over 35% in size
How it was run: as §2

[10] = Quantitative High-Throughput drug screen in 47 multiple myeloma cell lines against the NCATS MIPE library collection: NCIH929_DSMZ cell viability assay (AID 1918978); further: potency means the concentration at half of the fitted maximal effect; nearly all actives have a fitted effect of over 35% in size
How it was run: as §2

[11] = Quantitative High-Throughput drug screen in 47 multiple myeloma cell lines against the NCATS MIPE library collection: OCIMY1_PLB cell viability assay (AID 1918979); conditions: OCI-MY1 myeloma viability, CellTiter-Glo ATP, 48 h; viability: at 45.8 µM (top of the series) unless noted; further: nearly all actives have a fitted effect of over 35% in size; further: potency means the concentration at half of the fitted maximal effect
How it was run: as §2

[12] = Quantitative High-Throughput drug screen in 47 multiple myeloma cell lines against the NCATS MIPE library collection: MM1S_ATCC cell viability assay (AID 1918980); further: potency means the concentration at half of the fitted maximal effect; nearly all actives have a fitted effect of over 45% in size
How it was run: as §2

[13] = Quantitative High-Throughput drug screen in 47 multiple myeloma cell lines against the NCATS MIPE library collection: KMS34_JCRB cell viability assay (AID 1918985); conditions: KMS34 myeloma viability, CellTiter-Glo ATP luminescence, 48 h; viability, percent of control: at 45.8 µM (top of the series); further: potency means the concentration at half of the fitted maximal effect; nearly all actives have a fitted effect of over 40% in size
How it was run: as §2

[14] = Quantitative High-Throughput drug screen in 47 multiple myeloma cell lines against the NCATS MIPE library collection: U266_ATCC cell viability assay (AID 1919864); conditions: U266 myeloma viability, CellTiter-Glo ATP luminescence, 48 h; viability (% of DMSO control): at 45.8 µM (top of the series); further: nearly all actives have a fitted effect of over 35% in size; further: potency means the concentration at half of the fitted maximal effect
How it was run: as §2

[15] = Quantitative High-Throughput drug screen in 47 multiple myeloma cell lines against the NCATS MIPE library collection: XG6_PLB cell viability assay (AID 1919865); conditions: XG6 myeloma viability, CellTiter-Glo ATP luminescence, 48 h; viability (% of control): at 45.8 µM (top of the series); further: nearly all actives have a fitted effect of over 40% in size; further: potency means the concentration at half of the fitted maximal effect
How it was run: as §2

[16] = Quantitative High-Throughput drug screen in 47 multiple myeloma cell lines against the NCATS MIPE library collection: OCIMY7_PLB cell viability assay (AID 1918987); conditions: OCI-MY7 myeloma viability, CellTiter-Glo ATP, 48 h; viability (% of DMSO): at 45.8 µM (top of the series); further: potency means the concentration at half of the fitted maximal effect; nearly all actives have a fitted effect of over 65% in size
How it was run: as §2

[17] = Quantitative High-Throughput drug screen in 47 multiple myeloma cell lines against the NCATS MIPE library collection: SKMM1_PLB cell viability assay (AID 1919863); conditions: SKMM1 myeloma viability, CellTiter-Glo ATP, 48 h; viability: stronger effect = lower value; further: nearly all actives have a fitted effect of over 35% in size; further: potency means the concentration at half of the fitted maximal effect
How it was run: as §2

[18] = Quantitative High-Throughput drug screen in 47 multiple myeloma cell lines against the NCATS MIPE library collection: MM1R_ATCC cell viability assay (AID 1918981); further: nearly all actives have a fitted effect of over 35% in size; further: potency means the concentration at half of the fitted maximal effect
How it was run: as §2

[19] = Quantitative High-Throughput drug screen in 47 multiple myeloma cell lines against the NCATS MIPE library collection: OCIMY5_PLB cell viability assay (AID 1918988); conditions: OCI-MY5 myeloma viability, ATP luminescence, 48 h; viability, % of control: at 45.8 µM (top of the series);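 further: 100% = DMSO-treated wells and 0% = wells with media alone; nearly all actives have a fitted effect of over 65% in size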
How it was run: as §2

[20] = Quantitative High-Throughput drug screen in 47 multiple myeloma cell lines against the NCATS MIPE library collection: XG1_PLB cell viability assay (AID 1919866); conditions: CellTiter-Glo ATP, 48 h; viability: at 45.8 µM (top of the series)
How it was run: as §2

CC(C=CC(=O)NO)=C[C@@H](C)C(=O)c1ccc(N(C)C)cc1
active: Potency [1] 0.148 µM | Potency [2] 0.166 µM | Potency [3] 0.264 µM | Potency [4] 0.0935 µM | Potency [5] 0.372 µM | Potency [6] 0.296 µM | Potency [7] 0.132 µM | Potency [8] 0.332 µM

COc1c(Cl)cc2c([nH]c3cnccc32)c1NC(=O)c1cccnc1C
inconclusive: Potency [1] 2.64 µM [cytotoxic, full curve, poor fit] | Potency [2] 2.09 µM [rising, full curve] | Potency [9] 23.5 µM [cytotoxic, single point] | Potency [12] 0.743 µM [cytotoxic, full curve, poor fit] | Potency [6] 16.6 µM [cytotoxic, partial curve, poor fit] | Potency [14] 16.6 µM [cytotoxic, partial curve, poor fit]
inactive: Potency [4] | Potency [11]
active: Potency [10] 0.743 µM | Potency [13] 3.32 µM | Potency [15] 0.166 µM

O=C1[C@H](Cc2ccc(O)cc2)N2C(=O)CCN(C(=O)NCc3ccccc3)[C@H]2CN1Cc1cccc2ccccc12
inconclusive: Potency [1] 16.6 µM [cytotoxic, partial curve, poor fit] | Potency [2] 0.0105 µM [cytotoxic, full curve, poor fit] | Potency [9] 9.35 µM [cytotoxic, partial curve, poor fit] | Potency [4] 5.26 µM [cytotoxic, partial curve, poor fit] | Potency [5] 11.8 µM [cytotoxic, full curve] | Potency [13] 16.6 µM [cytotoxic, partial curve, poor fit] | Potency [16] 16.6 µM [cytotoxic, partial curve, poor fit] | Potency [14] 7.43 µM [cytotoxic, partial curve]
active: Potency [10] 3.72 µM | Potency [17] 6.62 µM | Potency [15] 4.18 µM
inactive: Potency [7]

S=P(N1CC1)(N1CC1)N1CC1
active: Potency [12] 18.7 µM | Potency [18] 18.7 µM | Potency [16] 13.2 µM | Potency [15] 23.5 µM
inconclusive: Potency [1] 33.2 µM [cytotoxic, single point] | Potency [2] 33.2 µM [rising, partial curve] | Potency [9] 1.32 µM [cytotoxic, partial curve, poor fit] | Potency [4] 20.9 µM [cytotoxic, partial curve, poor fit] | Potency [10] 16.6 µM [cytotoxic, partial curve, poor fit] | Potency [7] 16.6 µM [rising, partial curve, poor fit] | Potency [14] 20.9 µM [cytotoxic, partial curve, poor fit] | Potency [20] 1.05 µM [cytotoxic, full curve, poor fit]
inactive: Potency [5] | Potency [19] | Potency [8] | viability [17] 142%

CC(=O)c1c(C)c2cnc(Nc3ccc(N4CCNCC4)cn3)nc2n(C2CCCC2)c1=O
active: Potency [1] 7.43 µM | Potency [2] 14.8 µM | Potency [18] 14.8 µM | Potency [5] 5.9 µM | Potency [7] 23.5 µM
inconclusive: Potency [9] 33.2 µM [cytotoxic, single point] | Potency [11] 26.4 µM [cytotoxic, partial curve] | Potency [13] 16.6 µM [cytotoxic, partial curve, poor fit] | Potency [16] 20.9 µM [cytotoxic, partial curve, poor fit]

CN(C)c1nc(Cc2ccc(NC(=O)c3ccc4ccccc4c3)cc2)nc(Cl)c1CC(=O)O
inconclusive: Potency [2] 6.62 µM [rising, full curve, poor fit] | Potency [9] 5.9 µM [cytotoxic, partial curve, poor fit] | Potency [11] 26.4 µM [rising, single point] | Potency [7] 5.9 µM [cytotoxic, partial curve, poor fit] | Potency [13] 37.2 µM [rising, single point] | Potency [16] 0.372 µM [rising, partial curve, poor fit] | Potency [17] 11.8 µM [cytotoxic, single point]
inactive: Potency [1] | Potency [4] | Potency [18] | Potency [6] | Potency [8] | Potency [14] | Potency [15]
